In publication PMC4726654:
Results are given in words; binding and its absence hold for the method and conditions named. In cells and extracts the contact can be indirect. Some entries that bind do so weakly or less than the wild type.

Target: T1, Tudor-SN (Tudor staphylococcal nuclease) (Drosophila melanogaster (endogenous in 0-12 h w1118 embryos)) (UniProt Q9W0S7)
T1 sequence: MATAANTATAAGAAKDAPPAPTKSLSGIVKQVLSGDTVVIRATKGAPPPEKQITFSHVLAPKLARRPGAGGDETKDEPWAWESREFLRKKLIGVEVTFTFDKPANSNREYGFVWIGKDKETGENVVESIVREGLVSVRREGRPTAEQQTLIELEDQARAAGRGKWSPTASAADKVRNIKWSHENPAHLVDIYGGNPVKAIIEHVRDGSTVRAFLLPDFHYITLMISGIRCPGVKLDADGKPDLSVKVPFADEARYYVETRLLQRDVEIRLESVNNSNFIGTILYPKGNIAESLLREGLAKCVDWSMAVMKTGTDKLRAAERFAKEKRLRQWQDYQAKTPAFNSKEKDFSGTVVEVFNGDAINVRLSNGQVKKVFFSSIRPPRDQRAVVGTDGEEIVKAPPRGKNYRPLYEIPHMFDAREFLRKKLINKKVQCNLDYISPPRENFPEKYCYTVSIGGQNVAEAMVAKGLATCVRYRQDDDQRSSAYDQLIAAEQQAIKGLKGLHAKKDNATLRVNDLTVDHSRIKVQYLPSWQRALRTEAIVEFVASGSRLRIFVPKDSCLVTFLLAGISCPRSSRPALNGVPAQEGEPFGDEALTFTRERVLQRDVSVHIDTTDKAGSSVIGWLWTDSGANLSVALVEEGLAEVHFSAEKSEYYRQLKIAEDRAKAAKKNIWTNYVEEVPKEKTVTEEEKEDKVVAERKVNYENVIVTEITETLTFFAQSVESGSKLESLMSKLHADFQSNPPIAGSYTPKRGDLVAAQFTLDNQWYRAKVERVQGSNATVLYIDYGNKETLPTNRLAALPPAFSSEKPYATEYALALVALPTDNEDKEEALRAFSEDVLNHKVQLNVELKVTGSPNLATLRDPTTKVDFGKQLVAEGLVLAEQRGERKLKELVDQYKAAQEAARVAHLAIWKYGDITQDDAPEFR
Assay: co-IP; cytoplasmic extract of 0-12 h w1118 embryos, 1 mg protein in 1 ml H(0.15) buffer (25 mM HEPES-NaOH pH 7.8, 150 mM NaCl, 0.02% NP-40, 20% glycerol), 4°C; monoclonal mouse anti-Piwi or anti-TSN antibody, Protein A/G agarose; Western blot; IgG as control

- binding: binds
B1: Piwi (protein, UniProt Q9VKM1 1-843)
chain: MADDQGRGRRRPLNEDDSSTSRGSGDGPRVKVFRGSSSGDPRADPRIEASRERRALEEAPRREGGPTERKPWGDQYDYLNTRPAELVSKKGTDGVPVMLQTNFFRLKTKPEWRIVHYHVEFEPSIENPRVRMGVLSNHANLLGSGYLFDGLQLFTTRKFEQEITVLSGKSKLDIEYKISIKFVGFISCAEPRFLQVLNLILRRSMKGLNLELVGRNLFDPRAKIEIREFKMELWPGYETSIRQHEKDILLGTEITHKVMRTETIYDIMRRCSHNPARHQDEVRVNVLDLIVLTDYNNRTYRINDVDFGQTPKSTFSCKGRDISFVEYYLTKYNIRIRDHNQPLLISKNRDKALKTNASELVVLIPELCRVTGLNAEMRSNFQLMRAMSSYTRMNPKQRTDRLRAFNHRLQNTPESVKVLRDWNMELDKNVTEVQGRIIGQQNIVFHNGKVPAGENADWQRHFRDQRMLTTPSDGLDRWAVIAPQRNSHELRTLLDSLYRAASGMGLRIRSPQEFIIYDDRTGTYVRAMDDCVRSDPKLILCLVPNDNAERYSSIKKRGYVDRAVPTQVVTLKTTKNRSLMSIATKIAIQLNCKLGYTPWMIELPLSGLMTIGFDIAKSTRDRKRAYGALIASMDLQQNSTYFSTVTECSAFDVLANTLWPMIAKALRQYQHEHRKLPSRIVFYRDGVSSGSLKQLFEFEVKDIIEKLKTEYARVQLSPPQLAYIVVTRSMNTRFFLNGQNPPPGTIVDDVITLPERYDFYLVSQQVRQGTVSPTSYNVLYSSMGLSPEKMQKLTYKMCHLYYNWSGTTRVPAVCQYAKKLATLVGTNLHSIPQNALEKKFYYL
